According to doi:10.1101/2022.11.04.515170:
These are yes or no findings as the source states them, for the method shown. In cells and extracts the contact can be indirect. For some of these results: A result given as binding can be weak or reduced; the word gives no strength. For some of these results: Tags and fused reporters may be left off the sequences shown.

Tests used:
[1] = biological target: T1, mCherry-SNX6 (UniProt Q9UNH7); assay: co-IP
T1 sequence: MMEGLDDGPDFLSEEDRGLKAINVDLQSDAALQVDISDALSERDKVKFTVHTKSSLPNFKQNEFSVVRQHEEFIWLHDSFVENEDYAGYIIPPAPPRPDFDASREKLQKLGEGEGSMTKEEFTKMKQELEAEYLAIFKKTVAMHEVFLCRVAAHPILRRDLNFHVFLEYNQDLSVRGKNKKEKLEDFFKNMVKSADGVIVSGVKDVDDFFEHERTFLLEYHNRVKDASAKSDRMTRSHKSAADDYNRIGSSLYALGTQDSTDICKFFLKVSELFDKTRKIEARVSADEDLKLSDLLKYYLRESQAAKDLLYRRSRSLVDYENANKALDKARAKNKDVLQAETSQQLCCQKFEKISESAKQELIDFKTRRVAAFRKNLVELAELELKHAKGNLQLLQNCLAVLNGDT

[2] = biological target: T2, GFP-SNX32 WT (UniProt Q86XE0); assay: co-IP
T2 sequence: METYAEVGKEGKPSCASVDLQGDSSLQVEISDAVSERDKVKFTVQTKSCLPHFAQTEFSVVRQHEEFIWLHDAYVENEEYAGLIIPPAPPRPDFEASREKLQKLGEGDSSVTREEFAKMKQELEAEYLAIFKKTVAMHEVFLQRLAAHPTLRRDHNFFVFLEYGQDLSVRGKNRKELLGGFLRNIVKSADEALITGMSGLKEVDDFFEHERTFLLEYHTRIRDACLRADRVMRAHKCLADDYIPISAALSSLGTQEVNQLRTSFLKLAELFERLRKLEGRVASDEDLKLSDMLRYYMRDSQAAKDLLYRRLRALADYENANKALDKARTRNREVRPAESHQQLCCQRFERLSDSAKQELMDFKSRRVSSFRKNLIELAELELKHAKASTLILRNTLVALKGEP

[3] = biological target: T3, mCherry-SNX32 (UniProt Q86XE0); assay: co-IP
T3 sequence: T2 sequence

[4] = biological target: T4, His-SNX32ΔC (UniProt Q86XE0); assay: pull-down
T4 sequence: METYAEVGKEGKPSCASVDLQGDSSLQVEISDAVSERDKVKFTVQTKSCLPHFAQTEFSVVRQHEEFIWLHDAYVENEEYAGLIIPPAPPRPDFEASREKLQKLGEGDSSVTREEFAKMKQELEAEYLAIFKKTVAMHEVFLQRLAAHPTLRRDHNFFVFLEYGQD

binding [1]: no binding
binding [2]: binds
binding [3]: binds
binding [4]: binds
Substance: Basigin (from UniProt P35613-2) (receptor)
